Data reported in article doi:10.1101/2024.12.06.627129.

Protein sequences, listed by entry. Tags and fused reporters are not part of them. Lines headed by an entry give the natural chain unless they say otherwise; changes in a name come on top.
UniProt P17629: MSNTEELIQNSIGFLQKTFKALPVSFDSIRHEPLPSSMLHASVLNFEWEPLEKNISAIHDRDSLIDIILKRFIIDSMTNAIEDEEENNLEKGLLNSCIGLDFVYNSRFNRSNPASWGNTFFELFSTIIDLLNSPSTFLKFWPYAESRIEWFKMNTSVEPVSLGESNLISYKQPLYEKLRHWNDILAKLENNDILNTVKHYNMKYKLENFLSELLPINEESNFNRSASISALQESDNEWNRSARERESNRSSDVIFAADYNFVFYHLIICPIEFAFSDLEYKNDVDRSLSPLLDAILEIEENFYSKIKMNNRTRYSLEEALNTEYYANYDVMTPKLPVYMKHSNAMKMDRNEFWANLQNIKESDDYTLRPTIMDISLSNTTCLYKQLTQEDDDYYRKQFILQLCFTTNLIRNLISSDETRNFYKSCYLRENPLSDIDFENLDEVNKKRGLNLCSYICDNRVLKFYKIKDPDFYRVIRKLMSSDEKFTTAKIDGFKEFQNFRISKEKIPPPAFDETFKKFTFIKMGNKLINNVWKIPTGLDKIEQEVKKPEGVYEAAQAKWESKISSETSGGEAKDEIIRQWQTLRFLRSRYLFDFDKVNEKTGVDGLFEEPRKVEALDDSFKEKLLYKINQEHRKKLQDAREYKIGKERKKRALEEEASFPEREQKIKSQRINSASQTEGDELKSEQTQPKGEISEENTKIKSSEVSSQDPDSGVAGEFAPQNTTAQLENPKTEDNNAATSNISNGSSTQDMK
UniProt P53851: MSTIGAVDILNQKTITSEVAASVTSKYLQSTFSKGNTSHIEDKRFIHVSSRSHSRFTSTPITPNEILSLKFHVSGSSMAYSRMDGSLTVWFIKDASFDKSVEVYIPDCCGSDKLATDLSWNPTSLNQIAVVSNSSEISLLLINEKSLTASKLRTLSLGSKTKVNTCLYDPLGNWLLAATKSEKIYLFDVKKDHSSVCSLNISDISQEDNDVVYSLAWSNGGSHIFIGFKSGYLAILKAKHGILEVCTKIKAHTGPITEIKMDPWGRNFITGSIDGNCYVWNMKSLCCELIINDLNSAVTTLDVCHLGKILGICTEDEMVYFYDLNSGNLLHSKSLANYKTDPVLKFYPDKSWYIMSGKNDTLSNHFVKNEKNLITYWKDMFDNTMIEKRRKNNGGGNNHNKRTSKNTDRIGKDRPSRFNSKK

Molecular target: T1, Thp2-TAP (S. cerevisiae) (UniProt O13539)
T1 sequence: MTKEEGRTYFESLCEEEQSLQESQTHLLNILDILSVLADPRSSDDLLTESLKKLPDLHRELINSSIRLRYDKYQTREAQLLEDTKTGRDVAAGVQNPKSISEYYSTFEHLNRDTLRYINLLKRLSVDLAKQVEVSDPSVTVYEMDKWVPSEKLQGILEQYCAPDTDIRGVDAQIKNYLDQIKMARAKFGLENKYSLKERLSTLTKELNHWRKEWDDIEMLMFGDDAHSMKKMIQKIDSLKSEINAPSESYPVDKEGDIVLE
Assay: co-IP

Row | binding | Substance
1 | binds | Hpr1 (from UniProt P17629)
2 | binds | Tex1-HA (from UniProt P53851)

No constants are given. Whether binding was seen depends on the method and setting. Binding seen in cells or lysates may run through a third protein. Binding can be weak; no strength is given.
